# Test results reported in the supplement of paper PMC8728848.
# The list shows a part of the results.
# B1: Pwp1 (Candida glabrata) (protein)
# chain: MGSSHHHHHHSSGLVPRGSHMASANPISITNVCQFPDNWARTAGFQATTVRLGLTIASNTYKELLNYPGLFNFATQKATVTQPNFSISGFPFFTGLYGLTVWPINLLVELQGYFVPPESGNYTFTLQGSDDAAILFFANPSTFACGSQNDWPQPREADITVTDTLVPSRTLYLVKGVAYPIRIAYYNGSGDGKLNVSFKDPSGTTHTDWKGYVWQYSNTCSTCTYT
# Tests used:
# Test in all cases: glycan array binding signal (z-score within array); higher = stronger binding
# Settings in all cases: glycan notation: IUPAC condensed, linker removed
# [1] = target: Fuc(a1-2)[Gal(a1-3)]Gal(b1-4)GlcNAc(b1-2)Man(a1-3)[Fuc(a1-2)[Gal(a1-3)]Gal(b1-4)GlcNAc(b1-2)Man(a1-6)]Man(b1-4)GlcNAc(b1-4)[Fuc(a1-6)]GlcNAc
# How it was run: (§1)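 Glycan array data were curated from 3228 arrays in the Consortium for Functional Glycomics database and kept only where the protein sequence was available. Glycan names were converted to IUPAC-condensed notation, and columns mapping to the same glycan were averaged. The binding signal is a within-array Z-score, averaged across arrays of the same protein sequence at different concentrations or buffers and across linkers. Negative Z-scores can be read as non-binding.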
# [2] = target: Fuc(a1-2)[Gal(a1-3)]Gal(b1-4)GlcNAc(b1-3)GalNAc
# How it was run: as §1
# [3] = target: Fuc(a1-2)[Gal(a1-3)]Gal(b1-4)GlcNAc(b1-3)[Fuc(a1-2)[Gal(a1-3)]Gal(b1-4)GlcNAc(b1-6)]GalNAc
# How it was run: as §1
# [4] = target: Fuc(a1-2)[Gal(a1-3)]Gal(b1-4)GlcNAc(b1-6)GalNAc
# How it was run: as §1
# [5] = target: Fuc(a1-2)[Gal(a1-3)]Gal(b1-4)[Fuc(a1-3)]Glc
# How it was run: as §1
# [6] = target: Fuc(a1-2)[Gal(a1-3)]Gal(b1-4)[Fuc(a1-3)]GlcNAc
# How it was run: as §1
# [7] = target: Fuc(a1-2)[Gal(a1-3)]Gal(b1-4)[Fuc(a1-3)]GlcNAc(b1-3)GalNAc
# How it was run: as §1
# [8] = target: Fuc(a1-2)[Gal(a1-4)]Gal(b1-4)GlcNAc
# How it was run: as §1
# [9] = target: Fuc(a1-2)[GalNAc(a1-3)]Gal
# How it was run: as §1
# [10] = target: Fuc(a1-2)[GalNAc(a1-3)]Gal(b1-3)GalNAc(a1-3)[Fuc(a1-2)]Gal(b1-4)GlcNAc
# How it was run: as §1
# [11] = target: Fuc(a1-2)[GalNAc(a1-3)]Gal(b1-3)GalNAc(b1-3)Gal(a1-4)Gal(b1-4)Glc
# How it was run: as §1
# [12] = target: Fuc(a1-2)[GalNAc(a1-3)]Gal(b1-3)GlcNAc
# How it was run: as §1
# [13] = target: Fuc(a1-2)[GalNAc(a1-3)]Gal(b1-3)GlcNAc(b1-2)Man(a1-3)[Fuc(a1-2)[GalNAc(a1-3)]Gal(b1-3)GlcNAc(b1-2)Man(a1-6)]Man(b1-4)GlcNAc(b1-4)GlcNAc
# How it was run: as §1
# [14] = target: Fuc(a1-2)[GalNAc(a1-3)]Gal(b1-3)GlcNAc(b1-2)Man(a1-3)[Fuc(a1-2)[GalNAc(a1-3)]Gal(b1-3)GlcNAc(b1-2)Man(a1-6)]Man(b1-4)GlcNAc(b1-4)[Fuc(a1-6)]GlcNAc
# How it was run: as §1
# [15] = target: Fuc(a1-2)[GalNAc(a1-3)]Gal(b1-3)GlcNAc(b1-3)GalNAc
# How it was run: as §1
# [16] = target: Fuc(a1-2)[GalNAc(a1-3)]Gal(b1-3)GlcNAc(b1-6)GalNAc
# How it was run: as §1
# [17] = target: Fuc(a1-2)[GalNAc(a1-3)]Gal(b1-4)Glc
# How it was run: as §1
# [18] = target: Fuc(a1-2)[GalNAc(a1-3)]Gal(b1-4)GlcNAc
# How it was run: as §1
# [19] = target: Fuc(a1-2)[GalNAc(a1-3)]Gal(b1-4)GlcNAc(b1-2)Man
# How it was run: as §1
# [20] = target: Fuc(a1-2)[GalNAc(a1-3)]Gal(b1-4)GlcNAc(b1-2)Man(a1-3)[Fuc(a1-2)[GalNAc(a1-3)]Gal(b1-4)GlcNAc(b1-2)Man(a1-6)]Man(b1-4)GlcNAc(b1-4)GlcNAc
# How it was run: as §1
# [21] = target: Fuc(a1-2)[GalNAc(a1-3)]Gal(b1-4)GlcNAc(b1-2)Man(a1-3)[Fuc(a1-2)[GalNAc(a1-3)]Gal(b1-4)GlcNAc(b1-2)Man(a1-6)]Man(b1-4)GlcNAc(b1-4)[Fuc(a1-6)]GlcNAc
# How it was run: as §1
# [22] = target: Fuc(a1-2)[GalNAc(a1-3)]Gal(b1-4)GlcNAc(b1-3)Gal(b1-4)GlcNAc
# How it was run: as §1
# [23] = target: Fuc(a1-2)[GalNAc(a1-3)]Gal(b1-4)GlcNAc(b1-3)Gal(b1-4)GlcNAc(b1-3)Gal(b1-4)GlcNAc
# How it was run: as §1
# [24] = target: Fuc(a1-2)[GalNAc(a1-3)]Gal(b1-4)GlcNAc(b1-3)GalNAc
# How it was run: as §1
# [25] = target: Fuc(a1-2)[GalNAc(a1-3)]Gal(b1-4)GlcNAc(b1-3)[Fuc(a1-2)[GalNAc(a1-3)]Gal(b1-4)GlcNAc(b1-6)]GalNAc
# How it was run: as §1
# [26] = target: Fuc(a1-2)[GalNAc(a1-3)]Gal(b1-4)GlcNAc(b1-6)GalNAc
# How it was run: as §1
# [27] = target: Fuc(a1-2)[GalNAc(a1-3)]Gal(b1-4)[Fuc(a1-3)]GlcNAc
# How it was run: as §1
# [28] = target: Fuc(a1-2)[GalNAc(a1-3)]Gal(b1-4)[Fuc(a1-3)]GlcNAc(b1-3)GalNAc
# How it was run: as §1
# [29] = target: Fuc(a1-2)[GalNAc(a1-4)]Gal(b1-4)GlcNAc
# How it was run: as §1
# [30] = target: Fuc(a1-2)[GalNAc(b1-3)]Gal
# How it was run: as §1
# Fuc(a1-3)GlcNAc = target: Fuc(a1-3)GlcNAc
# How it was run: as §1
# [31] = target: Fuc(a1-3)[Gal(b1-4)]Glc6S
# How it was run: as §1
# [32] = target: Fuc(a1-3)[Gal(b1-4)]GlcNAc
# How it was run: as §1
# [33] = target: Fuc(a1-3)[Gal(b1-4)]GlcNAc(b1-2)Man
# How it was run: as §1
# [34] = target: Fuc(a1-3)[Gal(b1-4)]GlcNAc(b1-2)Man(a1-3)[Fuc(a1-3)[Gal(b1-4)]GlcNAc(b1-2)Man(a1-6)]Man(b1-4)GlcNAc(b1-4)GlcNAc
# How it was run: as §1
# [35] = target: Fuc(a1-3)[Gal(b1-4)]GlcNAc(b1-2)Man(a1-3)[Fuc(a1-3)[Gal(b1-4)]GlcNAc(b1-2)Man(a1-6)]Man(b1-4)GlcNAc(b1-4)[Fuc(a1-6)]GlcNAc
# How it was run: as §1
# [36] = target: Fuc(a1-3)[Gal(b1-4)]GlcNAc(b1-3)Gal(b1-3)[Fuc(a1-4)]GlcNAc
# How it was run: as §1
# [37] = target: Fuc(a1-3)[Gal(b1-4)]GlcNAc(b1-3)Gal(b1-4)[Fuc(a1-3)]GlcNAc
# How it was run: as §1
# [38] = target: Fuc(a1-3)[Gal(b1-4)]GlcNAc(b1-3)Gal(b1-4)[Fuc(a1-3)]GlcNAc(b1-3)Gal(b1-4)[Fuc(a1-3)]GlcNAc
# How it was run: as §1
# [39] = target: Fuc(a1-3)[Gal(b1-4)]GlcNAc(b1-3)GalNAc
# How it was run: as §1
# [40] = target: Fuc(a1-3)[Gal(b1-4)]GlcNAc(b1-6)GalNAc
# How it was run: as §1
# [41] = target: Fuc(a1-3)[Gal(b1-4)]GlcNAc(b1-6)[Gal(b1-3)GlcNAc(b1-3)]Gal(b1-4)Glc
# How it was run: as §1
# [42] = target: Fuc(a1-3)[Gal(b1-4)]GlcNAc6S
# How it was run: as §1
# [43] = target: Fuc(a1-3)[Gal3S(b1-4)]Glc
# How it was run: as §1
# [44] = target: Fuc(a1-3)[Gal3S(b1-4)]GlcNAc
# How it was run: as §1
binder,measurement,setting,value
B1,glycan array binding signal (z-score),[1],0.301
same,glycan array binding signal (z-score),[2],0.373
same,glycan array binding signal (z-score),[3],-0.015
same,glycan array binding signal (z-score),[4],0.962
same,glycan array binding signal (z-score),[5],0.655
same,glycan array binding signal (z-score),[6],0.505
same,glycan array binding signal (z-score),[7],-1.08
same,glycan array binding signal (z-score),[8],1.53
same,glycan array binding signal (z-score),[9],0.235
same,glycan array binding signal (z-score),[10],-0.318
same,glycan array binding signal (z-score),[11],1.29
same,glycan array binding signal (z-score),[12],-1.26
same,glycan array binding signal (z-score),[13],0.762
same,glycan array binding signal (z-score),[14],1.16
same,glycan array binding signal (z-score),[15],2.44
same,glycan array binding signal (z-score),[16],1.14
same,glycan array binding signal (z-score),[17],0.916
same,glycan array binding signal (z-score),[18],0.714
same,glycan array binding signal (z-score),[19],0.259
same,glycan array binding signal (z-score),[20],-0.999
same,glycan array binding signal (z-score),[21],-1.03
same,glycan array binding signal (z-score),[22],-1.8
same,glycan array binding signal (z-score),[23],-1.89
same,glycan array binding signal (z-score),[24],2.36
same,glycan array binding signal (z-score),[25],0.674
same,glycan array binding signal (z-score),[26],0.906
same,glycan array binding signal (z-score),[27],0.077
same,glycan array binding signal (z-score),[28],-0.825
same,glycan array binding signal (z-score),[29],-0.784
same,glycan array binding signal (z-score),[30],-0.259
same,glycan array binding signal (z-score),Fuc(a1-3)GlcNAc,0.626
same,glycan array binding signal (z-score),[31],1.09
same,glycan array binding signal (z-score),[32],0.339
same,glycan array binding signal (z-score),[33],1.09
same,glycan array binding signal (z-score),[34],0.4
same,glycan array binding signal (z-score),[35],-0.278
same,glycan array binding signal (z-score),[36],3.12
same,glycan array binding signal (z-score),[37],-0.463
same,glycan array binding signal (z-score),[38],-0.488
same,glycan array binding signal (z-score),[39],0.036
same,glycan array binding signal (z-score),[40],0.625
same,glycan array binding signal (z-score),[41],-0.507
same,glycan array binding signal (z-score),[42],-1.68
same,glycan array binding signal (z-score),[43],0.697
same,glycan array binding signal (z-score),[44],1.09

# Shown with tabs: part of the list above
binder	measurement	setting	value
B1	glycan array binding signal (z-score)	[20]	-0.999
same	glycan array binding signal (z-score)	[21]	-1.03
same	glycan array binding signal (z-score)	[22]	-1.8
same	glycan array binding signal (z-score)	[23]	-1.89
same	glycan array binding signal (z-score)	[24]	2.36
same	glycan array binding signal (z-score)	[25]	0.674
same	glycan array binding signal (z-score)	[26]	0.906
same	glycan array binding signal (z-score)	[27]	0.077
